{
  "sequences": {"note": "The chains behind the UniProt entries cited, without tags or fusion partners.", "UniProt P53350, whole entry, looked up": "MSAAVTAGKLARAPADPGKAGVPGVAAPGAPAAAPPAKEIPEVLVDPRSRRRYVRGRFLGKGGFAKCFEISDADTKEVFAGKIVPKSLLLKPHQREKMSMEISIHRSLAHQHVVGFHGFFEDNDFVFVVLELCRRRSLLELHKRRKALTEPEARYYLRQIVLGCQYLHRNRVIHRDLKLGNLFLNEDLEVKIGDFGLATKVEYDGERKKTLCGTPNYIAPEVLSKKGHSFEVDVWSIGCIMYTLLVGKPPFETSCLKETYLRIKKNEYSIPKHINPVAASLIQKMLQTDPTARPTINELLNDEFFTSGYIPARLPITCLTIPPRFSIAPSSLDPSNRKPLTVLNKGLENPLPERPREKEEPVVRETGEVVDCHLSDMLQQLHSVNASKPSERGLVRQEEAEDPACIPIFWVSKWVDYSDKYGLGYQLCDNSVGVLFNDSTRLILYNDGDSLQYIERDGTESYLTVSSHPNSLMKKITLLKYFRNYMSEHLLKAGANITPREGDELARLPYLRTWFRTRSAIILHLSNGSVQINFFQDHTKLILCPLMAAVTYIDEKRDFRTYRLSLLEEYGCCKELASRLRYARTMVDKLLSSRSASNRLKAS"},
  "source": "PubChem BioAssay AID720504",
  "about": "(National Center for Advancing Translational Sciences (NCATS), 2013)",
  "note": "In all, about 360,000 compounds went through this assay and about 10,000 (2.8%) were called active. Inconclusive means that the source gave no clear call. Such entries were picked first, then a sample of the others. Calls come from the whole dose curve; as a rule, active = well fitted inhibition curve with a large enough effect; inconclusive = small, poorly fitted or top-dose-only effect; inactive = flat fitted curve, though single readings scatter. Where the call is inconclusive, the potency comes from a doubtful curve fit. % is set by controls: 0 for no effect and ±100 for the full control effect; potency is the fitted concentration of half-maximal effect.",
  "data": [
    {"biological_target": "Serine/threonine-protein kinase PLK1 (Homo sapiens) (UniProt P53350)", "assay": "qHTS for Inhibitors of PLK1-PDB (polo-like kinase 1 - polo-box domain): Primary Screen; note: nearly all actives have a fitted effect of over 65% in size; for max response, negative = inhibition: series mostly up to about 57 µM", "conditions": "Plk1 PBD binding of FITC phosphopeptide, fluorescence polarization", "values": [
      {"smiles": "O=C1C(=O)N(Cc2ccccc2)C(=O)N1CCN1C(=O)c2ccccc2C1=O", "max response, negative = inhibition": "inactive: 1.7%"},
      {"smiles": "Cc1c(CCC(=O)N[C@@H](CC(C)C)C(=O)O)c(=O)oc2c(C)c3oc4c(c3cc12)CCCC4", "Potency": "active: 29.9 µM"},
      {"smiles": "NC(=S)Nc1cc2ccccc2c2ccccc12", "Potency": "inconclusive: 26.7 µM [inhibitor, partial curve]"},
      {"smiles": "COc1cc(/C=N/O)cc(Cl)c1OC", "Potency": "inconclusive: 26.7 µM [inhibitor, single point]"},
      {"smiles": "CCCC(C1=C(O)CC(C)(C)CC1=O)C1C(=O)CC(C)(C)CC1=O", "note": "(stereo unspecified)", "Potency": "inconclusive: 13.4 µM [inhibitor, partial curve]"},
      {"smiles": "CC(C)Sc1nc(N)c2c3c(sc2n1)CN(C)CC3", "Potency": "active: 26.7 µM"},
      {"smiles": "CCOC(=O)c1[nH]c2ccccc2c1N=CN(C)C", "max response, negative = inhibition": "inactive: -7.91%"},
      {"smiles": "Cc1ccsc1/C=N/n1c(-c2ccncc2)n[nH]c1=S", "Potency": "inconclusive: 29.9 µM [inhibitor, partial curve]"},
      {"smiles": "COC(=O)C1CCN(C2=C(NS(=O)(=O)c3ccc(Cl)cc3)C(=O)c3ccccc3C2=O)CC1", "Potency": "active: 21.2 µM"},
      {"smiles": "O=C(NNS(=O)(=O)c1ccccc1)C1CC(c2cccnc2)=NO1", "note": "(stereo unspecified)", "Potency": "inconclusive: 26.7 µM [inhibitor, single point]"},
      {"smiles": "CCN(CC)C(=O)C[n+]1ccc(C(N)=O)cc1", "Potency": "active: 26.7 µM"},
      {"smiles": "Clc1ccc(SCCCCN2CCOCC2)cc1", "max response, negative = inhibition": "inactive: 1.13%"},
      {"smiles": "COc1ccc(C/C(N)=N/OC(=O)c2ccco2)cc1OC", "Potency": "inconclusive: 37.7 µM [inhibitor, single point]"},
      {"smiles": "CC1CCN(c2[nH]c(=S)c(C#N)c3c2CCCC3)CC1", "Potency": "inconclusive: 10.6 µM [inhibitor, partial curve]"},
      {"smiles": "COC(=O)c1cc(NC(=S)NCc2ccc(Cl)cc2)cc(C(=O)OC)c1", "Potency": "inconclusive: 26.7 µM [inhibitor, single point]"},
      {"smiles": "Cc1cccc(Nc2c([N+](=O)[O-])c(=O)n(C)c3ccccc23)c1", "Potency": "active: 26.7 µM"},
      {"smiles": "Clc1cccc(Cc2c(-c3ccco3)nc3ccc(Br)cn23)c1", "Potency": "active: 10.6 µM"},
      {"smiles": "C=CCc1c(C)nc(SC)nc1Nc1ccc(C(C)=O)cc1", "Potency": "inconclusive: 26.7 µM [inhibitor, partial curve]"},
      {"smiles": "O=C(/C=C/c1ccc(Cl)cc1)c1ccc([N+](=O)[O-])o1", "Potency": "inconclusive: 5.32 µM [inhibitor, partial curve]"},
      {"smiles": "NS(=O)(=O)c1cccc(NC(=O)CSc2ncc(C(F)(F)F)cc2Cl)c1", "Potency": "inconclusive: 33.6 µM [inhibitor, partial curve]"},
      {"smiles": "Oc1c(C(c2ccccc2)N2CCc3ccccc3C2)sc2ncnn12", "note": "(stereo unspecified)", "Potency": "inconclusive: 29.9 µM [inhibitor, partial curve]"},
      {"smiles": "Cc1nc([N+](=O)[O-])c(Br)n1CC(=O)c1ccc(Br)cc1", "Potency": "inconclusive: 26.7 µM [inhibitor, partial curve]"},
      {"smiles": "CCOC(=O)C1=C(CSc2nc(CC)c(C)cc2C#N)OC(N)=C(C#N)C1c1ccccc1", "note": "(stereo unspecified)", "max response, negative = inhibition": "inactive: -22%"},
      {"smiles": "C=CCN1C=C2C(=O)C(C)(OC(=O)CCC(=O)OC)C(=O)C(Br)=C2C=C1c1ccc(OC)cc1", "note": "(stereo unspecified)", "Potency": "inconclusive: 11.9 µM [inhibitor, single point]"},
      {"smiles": "Cc1c(Cl)c(C(=O)N2CCCCCC2)nn1C", "max response, negative = inhibition": "inactive: -8.32%"},
      {"smiles": "COc1ccc(C(=O)COC(=O)c2ccc3ccccc3n2)cc1", "Potency": "inconclusive: 26.7 µM [inhibitor, partial curve]"},
      {"smiles": "Nc1nc2c(F)c(F)c(F)cc2s1", "Potency": "active: 26.7 µM"},
      {"smiles": "CN1CCN(C(=O)c2cc(COc3c(F)cccc3F)on2)CC1c1ccccc1", "note": "(stereo unspecified)", "max response, negative = inhibition": "inactive: -17%"},
      {"smiles": "COC(=O)c1ccc(-c2c(-c3ccccc3)ncc3cc(F)ccc23)cc1", "max response, negative = inhibition": "inactive: -26.1%"},
      {"smiles": "COc1ccc(C2=NOC(Cn3nc(C(=O)O)cc3-c3ccccc3)C2)cc1", "note": "(stereo unspecified)", "Potency": "inconclusive: 37.7 µM [inhibitor, single point]"},
      {"smiles": "CCn1cc(/C=C(\\NC(=O)c2ccc(C)cc2)C(=O)NCCN2CCOCC2)c2ccccc21", "Potency": "active: 26.7 µM"},
      {"smiles": "Cc1cc(NC(=O)CCS(=O)(=O)c2ccc3c(c2)NC(=O)C(C)S3)ccc1Br", "note": "(stereo unspecified)", "max response, negative = inhibition": "inactive: -6.99%"},
      {"smiles": "COc1ccc(N2CCN(C(=O)CC(C)S(=O)(=O)c3ccc4c(c3)NC(=O)CO4)CC2)cc1", "note": "(stereo unspecified)", "Potency": "inconclusive: 37.7 µM [inhibitor, single point]"},
      {"smiles": "O=C(c1ccc2c(c1)[nH]c(=S)n1c3ccccc3nc21)N1CCN(c2cccc(Cl)c2)CC1", "max response, negative = inhibition": "inactive: -3.21%"},
      {"smiles": "CCOC(=O)CNc1ncc(C(F)(F)F)cc1Cl", "Potency": "inconclusive: 26.7 µM [inhibitor, single point]"},
      {"smiles": "NC(=O)c1c(NC(=O)COC(=O)c2ccc(O)c(Cl)c2)sc2c1CCCC2", "Potency": "inconclusive: 18.9 µM [inhibitor, single point]"},
      {"smiles": "COc1ccc(OC)c(-n2nnnc2SCC(=O)Nc2nc(C)c(C)s2)c1", "Potency": "inconclusive: 37.7 µM [inhibitor, single point]"},
      {"smiles": "CCCC(=O)Nc1ccc(-c2csc(NNC(C)=O)n2)cc1", "Potency": "inconclusive: 29.9 µM [inhibitor, partial curve]"},
      {"smiles": "Cc1nc(-c2ccccn2)nc(SCC(=O)c2ccccc2)c1Cl", "Potency": "inconclusive: 29.9 µM [inhibitor, single point]"},
      {"smiles": "COC(=O)C1=C(C)Nc2sc(C(N)=O)c(N)c2C1c1ccncc1", "note": "(stereo unspecified)", "Potency": "inconclusive: 5.97 µM [inhibitor, single point]"},
      {"smiles": "COc1ccc(C2C=C(Nc3ccccc3)C(=O)N2c2ccccc2)cc1OC", "note": "(stereo unspecified)", "max response, negative = inhibition": "inactive: 5.81%"},
      {"smiles": "CC(=O)Nc1ccc(Oc2ccc([N+](=O)[O-])cc2Cl)cc1", "Potency": "inconclusive: 33.6 µM [inhibitor, partial curve]"},
      {"smiles": "CS(=O)(=O)N(CC(=O)N1CCN(c2ccccc2)CC1)C1CCCCC1", "Potency": "active: 26.7 µM"},
      {"smiles": "O=C(NCc1ccc2c(c1)OCO2)C(=O)NC1CCCCC1", "Potency": "inconclusive: 26.7 µM [inhibitor, single point]"},
      {"smiles": "COC(=O)c1ccc(CSc2nc3ccccc3c(=O)n2C)o1", "Potency": "inconclusive: 18.9 µM [inhibitor, partial curve]"},
      {"smiles": "COc1ccc(-c2ccc(OC)c([C@H]3[C@H]4C=CC[C@@H](C)[C@@H]4C(=O)N3Cc3ccccc3)c2)cc1OC", "Potency": "inconclusive: 26.7 µM [inhibitor, single point]"},
      {"smiles": "Cc1ccc2c(c1)/C(=N/OC(=O)c1ccc(F)cc1)CCS2", "max response, negative = inhibition": "inactive: -1.2%"},
      {"smiles": "O=C(Nc1cc(Br)ccc1O)C1CC(c2ccccc2Cl)=NO1", "note": "(stereo unspecified)", "max response, negative = inhibition": "inactive: 6.24%"},
      {"smiles": "CCNC(=S)Nc1ccc(N(c2ccccc2)C(C)C)cc1", "Potency": "inconclusive: 26.7 µM [inhibitor, single point]"},
      {"smiles": "CC(=O)Oc1ccc2c(c1)O/C(=C\\c1ccncc1)C2=O", "Potency": "inconclusive: 16.8 µM [inhibitor, partial curve]"},
      {"smiles": "CC(C)CNC(=S)NC(=O)c1ccc(Cl)cc1Cl", "Potency": "inconclusive: 26.7 µM [inhibitor, partial curve]"},
      {"smiles": "CN(C)CCC(=O)N1C/C(=C/c2ccccc2)C(=O)/C(=C\\c2ccccc2)C1", "Potency": "inconclusive: 26.7 µM [inhibitor, partial curve]"},
      {"smiles": "OC(c1ccc(-c2ccccc2)cc1)c1ncc(-c2cccc(F)c2)[nH]1", "note": "(stereo unspecified)", "max response, negative = inhibition": "inactive: 7.34%"},
      {"smiles": "COc1ccc(C(=O)C[n+]2cc(Br)cc3ccccc32)cc1[N+](=O)[O-]", "Potency": "inconclusive: 21.2 µM [inhibitor, single point]"},
      {"smiles": "Cc1ccc2nc3c(c(Nc4ccccc4)c2c1)CCC3", "max response, negative = inhibition": "inactive: -12.4%"},
      {"smiles": "O=[N+]([O-])c1cccc(C([O-])=C(C(=S)Nc2cccc3ccccc23)[n+]2ccccc2)c1", "Potency": "inconclusive: 29.9 µM [inhibitor, single point]"},
      {"smiles": "COc1ccc(S(=O)(=O)N2CCCC(C(=O)NCCCn3ccnc3)C2)cc1OC", "note": "(stereo unspecified)", "Potency": "inconclusive: 37.7 µM [inhibitor, single point]"},
      {"smiles": "CCc1ccc(/C=N/n2c(C3CCCCC3)n[nH]c2=S)cc1", "Potency": "inconclusive: 23.8 µM [inhibitor, partial curve]"},
      {"smiles": "Cc1c(N(C)S(=O)(=O)c2cccc(C(=O)NC(C)C)c2)c(=O)n(-c2ccccc2)n1C", "Potency": "active: 29.9 µM"},
      {"smiles": "CN(C)c1ccc2cc(S(=O)(=O)O)cc(O)c2c1", "Potency": "inconclusive: 23.8 µM [inhibitor, single point]"},
      {"smiles": "COc1cccc(C(=O)NC(=O)Nc2nc(C)cc(C(F)(F)F)n2)c1", "Potency": "inconclusive: 26.7 µM [inhibitor, single point]"},
      {"smiles": "CCC1C(=O)NCCN1C(=O)c1cc(COc2cc(C)ccc2C)on1", "note": "(stereo unspecified)", "max response, negative = inhibition": "inactive: 3.53%"},
      {"smiles": "COc1ccccc1-n1cnnc1SC(C)C(=O)NCC1CCCO1", "note": "(stereo unspecified)", "max response, negative = inhibition": "inactive: -5.23%"},
      {"smiles": "COc1cc([N+](=O)[O-])ccc1NC(=O)CCCOc1ccc(C)cc1", "Potency": "inconclusive: 21.2 µM [inhibitor, single point]"},
      {"smiles": "O=C(N/N=C/C(Cl)=C/c1ccc([N+](=O)[O-])cc1)C(=O)Nc1ccccc1C(=O)O", "max response, negative = inhibition": "inactive: -23.5%"},
      {"smiles": "Cn1c(O)c(N=Nc2ccccc2)c2ccccc21", "max response, negative = inhibition": "inconclusive: -31.5% [inhibitor]"},
      {"smiles": "O=C(CN1CCCCC1)Nc1ccc(NC(=O)c2ccccc2Cl)cc1Cl", "max response, negative = inhibition": "inactive: -6.28%"},
      {"smiles": "O=S(=O)(NC1CC1)c1ccc2c3c(cccc13)CC2", "Potency": "inconclusive: 37.7 µM [inhibitor, single point]"},
      {"smiles": "COc1ccc(CC(N)c2csc(NC(=O)NCc3ccccc3)n2)cc1", "note": "(stereo unspecified)", "max response, negative = inhibition": "inactive: 3.39%"},
      {"smiles": "O=C(Oc1cccc(C(=S)N2CCOCC2)c1)c1ccccc1", "Potency": "inconclusive: 26.7 µM [inhibitor, partial curve]"},
      {"smiles": "CCc1ccc(C(O)(C(C)C)C(CN2CCOCC2)c2ccccc2)cc1", "note": "(stereo unspecified)", "max response, negative = inhibition": "inactive: 5.03%"}
    ]}
  ]
}
